The other results are listed elsewhere or left out.
How the values were obtained:
Test in all cases: glycan array binding signal (z-score within array); higher = stronger binding
Settings in all cases: glycan notation: IUPAC condensed, linker removed
[1] = molecular target: Neu5Ac(a2-6)Gal(b1-4)GlcNAc(b1-6)GalNAc
Summary of the method: (§1)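 Glycan array data were curated from 3228 arrays in the Consortium for Functional Glycomics database and kept only where the protein sequence was available. Glycan names were converted to IUPAC-condensed notation, and columns mapping to the same glycan were averaged. The binding signal is a within-array Z-score, averaged across arrays of the same protein sequence at different concentrations or buffers and across linkers. Negative Z-scores can be read as non-binding.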

[2] = molecular target: Neu5Ac(a2-6)Gal(b1-4)GlcNAc(b1-6)[Gal(b1-3)GlcNAc(b1-3)]Gal(b1-4)Glc
Summary of the method: as §1

[3] = molecular target: Neu5Ac(a2-6)Gal(b1-4)GlcNAc(b1-6)[Gal(b1-3)]GalNAc
Summary of the method: as §1

[4] = molecular target: Neu5Ac(a2-6)Gal(b1-4)GlcNAc6S
Summary of the method: as §1

Neu5Ac(a2-6)GalNAc = molecular target: Neu5Ac(a2-6)GalNAc
Summary of the method: as §1

[5] = molecular target: Neu5Ac(a2-6)GalNAc(b1-4)GlcNAc
Summary of the method: as §1

[6] = molecular target: Neu5Ac(a2-6)GalNAc(b1-4)GlcNAc6S
Summary of the method: as §1

[7] = molecular target: Neu5Ac(a2-6)GlcNAc(b1-4)GlcNAc
Summary of the method: as §1

[8] = molecular target: Neu5Ac(a2-6)GlcNAc(b1-4)GlcNAc(b1-4)GlcNAc
Summary of the method: as §1

Neu5Ac(a2-8)Neu5Ac = molecular target: Neu5Ac(a2-8)Neu5Ac
Summary of the method: as §1

[9] = molecular target: Neu5Ac(a2-8)Neu5Ac(a2-3)Gal(b1-3)GalNAc(b1-4)[Neu5Ac(a2-3)]Gal(b1-4)Glc
Summary of the method: as §1

[10] = molecular target: Neu5Ac(a2-8)Neu5Ac(a2-3)Gal(b1-3)GalNAc(b1-4)[Neu5Ac(a2-8)Neu5Ac(a2-3)]Gal(b1-4)Glc
Summary of the method: as §1

[11] = molecular target: Neu5Ac(a2-8)Neu5Ac(a2-3)Gal(b1-4)Glc
Summary of the method: as §1

[12] = molecular target: Neu5Ac(a2-8)Neu5Ac(a2-3)Gal(b1-4)GlcNAc
Summary of the method: as §1

[13] = molecular target: Neu5Ac(a2-8)Neu5Ac(a2-3)[Gal(b1-3)GalNAc(b1-4)]Gal(b1-4)Glc
Summary of the method: as §1

[14] = molecular target: Neu5Ac(a2-8)Neu5Ac(a2-3)[GalNAc(b1-4)]Gal(b1-4)Glc
Summary of the method: as §1

[15] = molecular target: Neu5Ac(a2-8)Neu5Ac(a2-8)Neu5Ac
Summary of the method: as §1

[16] = molecular target: Neu5Ac(a2-8)Neu5Ac(a2-8)Neu5Ac(a2-3)Gal(b1-4)Glc
Summary of the method: as §1

[17] = molecular target: Neu5Ac(a2-8)Neu5Ac(a2-8)Neu5Ac(a2-3)[Gal(b1-3)GalNAc(b1-4)]Gal(b1-4)Glc
Summary of the method: as §1

[18] = molecular target: Neu5Ac(a2-8)Neu5Ac(a2-8)Neu5Ac(a2-3)[GalNAc(b1-4)]Gal(b1-4)Glc
Summary of the method: as §1

[19] = molecular target: Neu5Ac(a2-8)Neu5Ac(a2-8)Neu5Ac(a2-8)Neu5Ac(a2-3)[GalNAc(b1-4)]Gal(b1-4)Glc
Summary of the method: as §1

[20] = molecular target: Neu5Ac(a2-8)Neu5Gc(a2-3)Gal(b1-4)GlcNAc
Summary of the method: as §1

[21] = molecular target: Neu5Ac(b2-6)Gal(b1-4)GlcNAc
Summary of the method: as §1

Neu5Ac(b2-6)GalNAc = molecular target: Neu5Ac(b2-6)GalNAc
Summary of the method: as §1

[22] = molecular target: Neu5Ac9Ac(a2-3)Gal(b1-4)GlcNAc
Summary of the method: as §1

[23] = molecular target: Neu5Ac9Ac(a2-6)Gal(b1-4)GlcNAc
Summary of the method: as §1

[24] = molecular target: Neu5Gc(a2-3)Gal(b1-3)GlcNAc
Summary of the method: as §1

[25] = molecular target: Neu5Gc(a2-3)Gal(b1-3)[Fuc(a1-4)]GlcNAc
Summary of the method: as §1

Neu5Gc(a2-3)Gal(b1-4)Glc = molecular target: Neu5Gc(a2-3)Gal(b1-4)Glc
Summary of the method: as §1

[26] = molecular target: Neu5Gc(a2-3)Gal(b1-4)GlcNAc
Summary of the method: as §1

[27] = molecular target: Neu5Gc(a2-3)Gal(b1-4)GlcNAc(b1-3)Gal(b1-4)GlcNAc(b1-2)Man(a1-3)[Neu5Gc(a2-3)Gal(b1-4)GlcNAc(b1-3)Gal(b1-4)GlcNAc(b1-2)Man(a1-6)]Man(b1-4)GlcNAc(b1-4)GlcNAc
Summary of the method: as §1

[28] = molecular target: Neu5Gc(a2-3)Gal(b1-4)[Fuc(a1-3)]GlcNAc
Summary of the method: as §1

[29] = molecular target: Neu5Gc(a2-6)Gal(b1-4)GlcNAc
Summary of the method: as §1

Neu5Gc(a2-6)GalNAc = molecular target: Neu5Gc(a2-6)GalNAc
Summary of the method: as §1

[30] = molecular target: Neu5Gc(a2-8)Neu5Ac(a2-3)Gal(b1-4)GlcNAc
Summary of the method: as §1

[31] = molecular target: Neu5Gc(a2-8)Neu5Gc(a2-3)Gal(b1-4)GlcNAc
Summary of the method: as §1

[32] = molecular target: Neu5Gc(a2-8)Neu5Gc(a2-3)Gal(b1-4)GlcNAc(b1-3)Gal(b1-4)GlcNAc
Summary of the method: as §1

[33] = molecular target: Neu5Gc(a2-8)Neu5Gc(a2-6)Gal(b1-4)GlcNAc
Summary of the method: as §1

B1: RbmA (Vibrio cholerae), A0A2H4NFB8 (protein)
chain: MSNFKGSIMNKRHYYLASCLALLFSTASYAEVDCELQPVIEANLSLNQNQLASNGGYISSQLGIRNESCETVKFKYWLSIKGPEGIYFPAKAVVGVDTAQQESDALTDGRMLNVTRGFWVPEYMADGKYTVSLQVVAENGEVFKANQEFVKGGDLNSLPELNGLTIDIKNQFGINSVESTGGFVPFTIDLNNGREGEAKVEFWMTAVGPDGLIIPVHSREKWMIIAGNTFSKVRGINFDKSYPAGEYTINAQVVDIVSGERVEQLMTVVKK
- glycan array binding signal (z-score) [1]: -0.899
- glycan array binding signal (z-score) [2]: -0.069
- glycan array binding signal (z-score) [3]: -0.803
- glycan array binding signal (z-score) [4]: 1.46
- glycan array binding signal (z-score) (Neu5Ac(a2-6)GalNAc): -1.65
- glycan array binding signal (z-score) [5]: 1.39
- glycan array binding signal (z-score) [6]: -0.066
- glycan array binding signal (z-score) [7]: -0.396
- glycan array binding signal (z-score) [8]: -0.407
- glycan array binding signal (z-score) (Neu5Ac(a2-8)Neu5Ac): -0.531
- glycan array binding signal (z-score) [9]: 1.75
- glycan array binding signal (z-score) [10]: 0.072
- glycan array binding signal (z-score) [11]: 0.755
- glycan array binding signal (z-score) [12]: 0.05
- glycan array binding signal (z-score) [13]: -0.461
- glycan array binding signal (z-score) [14]: -0.02
- glycan array binding signal (z-score) [15]: -0.718
- glycan array binding signal (z-score) [16]: -0.665
- glycan array binding signal (z-score) [17]: -0.211
- glycan array binding signal (z-score) [18]: -0.287
- glycan array binding signal (z-score) [19]: 0.581
- glycan array binding signal (z-score) [20]: -0.772
- glycan array binding signal (z-score) [21]: -0.805
- glycan array binding signal (z-score) (Neu5Ac(b2-6)GalNAc): -0.014
- glycan array binding signal (z-score) [22]: -0.939
- glycan array binding signal (z-score) [23]: -0.608
- glycan array binding signal (z-score) [24]: -0.801
- glycan array binding signal (z-score) [25]: 1.45
- glycan array binding signal (z-score) (Neu5Gc(a2-3)Gal(b1-4)Glc): 0.337
- glycan array binding signal (z-score) [26]: 0.734
- glycan array binding signal (z-score) [27]: 1.1
- glycan array binding signal (z-score) [28]: -0.631
- glycan array binding signal (z-score) [29]: -0.715
- glycan array binding signal (z-score) (Neu5Gc(a2-6)GalNAc): -1.03
- glycan array binding signal (z-score) [30]: -0.254
- glycan array binding signal (z-score) [31]: -0.291
- glycan array binding signal (z-score) [32]: 0.128
- glycan array binding signal (z-score) [33]: -0.769
